PubChem BioAssay AID1259254 | NCATS – 2017
Purpose: 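Finding genes that stop cells copying their DNA twice in one cycle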 (primary screen). System: human HCT116 colorectal cancer cells. Knock-down reagent: single siRNA against human genes. Time to read-out: 3 days. Measured: 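Nuclei stained with Hoechst and imaged; cell-cycle phase assigned by DNA content; G2 share scaled per plate, non-targeting siRNA 0%, GMNN siRNA 100%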. Direction: G2 robust z-score: higher = more G2 cells, more excess DNA replication. Hit rule: 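Active siRNAs have a G2 robust z of 5 or more median absolute deviations over the median, which in these data means about 38% or higher of GMNN control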.
The whole screen tested about 59,000 reagents; this is a random part of them. About 1,550 of all reagents (2.6%) count as active. 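G2 share is only a proxy for re-replication; each gene was hit by three separate siRNAs, and active genes were retested.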 Entries without a mark were called inactive. Reagents against one gene are numbered here. Not all columns of the deposit are shown. The record does not give: the amount of reagent.

G2 robust z-score, by gene and reagent
ITGA9 (GeneID 3680): #1 0.738; #2 1.37; #3 -1.69
KHDC4 (GeneID 22889): #1 0.988; #2 0.361; #3 -0.174
EIF4E1B (GeneID 253314): #1 1.07; #2 0.632; #3 -0.6
MKKS (GeneID 8195): #1 -0.676; #2 -0.0403; #3 -1.14
LYPD1 (GeneID 116372): #1 -0.101; #2 -0.846; #3 -1.08
TNKS (GeneID 8658): #1 -0.55; #2 0.423; #3 1.02
ACTR1B (GeneID 10120): #1 -0.422; #2 -0.592; #3 0.8
THUMPD1 (GeneID 55623): #1 -0.389; #2 -1.08; #3 -0.786
FERRY3 (GeneID 57102): #1 0.493; #2 -0.413; #3 -0.912
LARP1BP3 (GeneID 644403): #1 -0.527; #2 0.238; #3 -0.152
TMEM213 (GeneID 155006): #1 0.314; #2 -0.569; #3 0.717

Not a retest: entries from further up.
G2 robust z-score, by gene and reagent
EIF4E1B (GeneID 253314): #1 1.07; #2 0.632; #3 -0.6
MKKS (GeneID 8195): #1 -0.676; #2 -0.0403; #3 -1.14
LYPD1 (GeneID 116372): #1 -0.101; #2 -0.846

The listing continues.
G2 robust z-score, by gene and reagent
ANXA2R (GeneID 389289): #1 -0.909; #2 -0.68; #3 -0.861
MILR1 (GeneID 284021): #1 0.365; #2 0.173; #3 1.75
UPRT (GeneID 139596): #1 -0.921; #2 -0.668; #3 -0.605
TAFA1 (GeneID 407738): #1 2.73; #2 0.554; #3 -1.01
LEMD2 (GeneID 221496): #1 -0.543; #2 0.472; #3 -0.235
LARGE2 (GeneID 120071): #1 1.5; #2 -0.893; #3 -1.02
UBE2F (GeneID 140739): #1 0.538; #2 -1.22; #3 1.86
SAMD5 (GeneID 389432): #1 -0.266; #2 -0.487; #3 -0.84
PCDH18 (GeneID 54510): #1 -0.232; #2 0.0273; #3 2.49
SCAF8 (GeneID 22828): #1 1.61; #2 -1.56; #3 0.0135
TNIK (GeneID 23043): #1 -1.01; #2 1.07; #3 -1.24
RCN2 (GeneID 5955): #1 0.201; #2 -0.402; #3 0.847
SRPK1 (GeneID 6732): #1 -0.903; #2 -0.71; #3 -0.718
CDT1 (GeneID 81620): #1 -0.924; #2 -0.23; #3 0.461
ZNF18 (GeneID 7566): #1 -0.217; #2 -0.306; #3 0.0398
AKAP3 (GeneID 10566): #1 -1.04; #2 2.19; #3 -0.741
ASPG (GeneID 374569): #1 1.47; #2 -0.669; #3 0.295
NUDCD1 (GeneID 84955): #1 -0.942; #2 3.04; #3 -0.046
